# Data: PubChem BioAssay AID662 (National Center for Advancing Translational Sciences (NCATS), 2007)
# The other results are listed elsewhere or left out. Further columns of the screen follow, without active or inactive calls. Compounds called inactive in the main read-out are mostly missing here. Potencies come from curve fits of mixed quality, noted in brackets.
# Test: Cell signaling CRE-BLA (Fsk stim)
# Settings: CHO CRE-bla reporter (cAMP response element driving beta-lactamase), forskolin EC10, beta-lactamase ratio; measured here: 460 nm blue channel
# Outline: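 CRE-bla CHO cells stimulated with EC10 NKH 477 (water-soluble forskolin) and compound titrations, 3 h at 37C; beta-lactamase read with CCF4 after 2 h at room temperature. Activity from 460/530 nm emission ratio, AC50 values for positive or negative modulation.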
row,SMILES,AC50
1,CN1CCc2c(sc3c2C(=O)NC(c2cccs2)N3)C1 (configuration not stated),"12.6 µM [rising, partial curve]"
2,CCOC(=O)c1cc2c(=O)n(C)c3ccccc3c2s1,"0.251 µM [falling, partial curve]"
3,O=C(Nc1ccc(Cl)cn1)Nc1cccs1,"1 µM [falling, partial curve, poor fit]"
4,O=C(NCc1ccc2c(c1)OCO2)c1cc(S(=O)(=O)N2CCCCC2)ccc1F,"12.6 µM [falling, single point]"
5,CCOC(=O)c1[nH]c2ccccc2c1NC(=O)c1ccc(Br)o1,"3.16 µM [rising, partial curve]"
6,COc1ccccc1OC(C)C(=O)O (configuration not stated),"0.01 µM [falling, full curve, poor fit]"
7,COc1cccc(-n2c(C)nc3c(cnn3-c3ccc(C)cc3)c2=O)c1,"0.00316 µM [falling, full curve, poor fit]"
8,O=C1c2ccccc2-c2ccc(NC(=O)[C@H]3CCCC[C@@H]3C(=O)O)cc21,"3.98 µM [rising, single point]"
9,COc1ccc(Cc2nnc(SCC(=O)NCc3ccco3)o2)cc1,"10 µM [falling, single point]"
10,O=C(Cn1cnc2c(nnn2Cc2ccc(F)cc2)c1=O)NC1CCCC1,"0.316 µM [falling, full curve]"
11,N#Cc1cccc(-c2nccc(NCc3cccnc3)n2)c1,"5.01 µM [rising, partial curve]"
12,Cc1ccc(/C=C/C2=Cc3c(sc(NC(=O)CSc4n[nH]c(N)n4)c3C#N)C(C)(C)C2)o1,"6.31 µM [falling, partial curve]"
13,COc1cc(Nc2nc(SCC#N)nc3ccccc23)cc(OC)c1OC,"12.6 µM [rising, single point]"
14,O=C1C=CC2=C3c4cc(O)c(O)cc4C[C@@]3(O)COC2=C1O,"2.51 µM [rising, partial curve, poor fit]"
15,CN1CCc2c(sc3c2C(=O)NC(c2ccc(-c4cccc(Cl)c4)o2)N3)C1 (configuration not stated),"2.51 µM [rising, partial curve]"
16,Cc1cc(Br)ccc1NC(=O)CNC(=O)CN1C(=O)NC2(CCCCCC2)C1=O,"5.01 µM [falling, single point]"
17,c1ccc(-c2cc(-c3nc(-c4cccnc4)no3)c3ccccc3n2)cc1,"3.16 µM [rising, single point]"
18,Nc1cccc2c1C(=O)N(C(=O)c1ccc(S(=O)(=O)N3CCCCCC3)cc1)C2=O,"12.6 µM [rising, single point]"
19,CCN(CCCNC(=O)C1CCN(S(=O)(=O)CC)CC1)c1cccc(C)c1,"0.631 µM [rising, full curve]"
20,CC(NC(=O)Nc1ccccc1O)(C(F)(F)F)C(F)(F)F,"0.00316 µM [falling, full curve, poor fit]"
21,COc1ccc(-n2ncc3c(N4CCCc5ccccc54)ncnc32)cc1,"2 µM [rising, full curve]"
22,CCOc1ccccc1NC(=O)c1ccc2nccnc2c1,"15.8 µM [rising, partial curve, poor fit]"
23,COc1cc2c3c(c1)/C(=C1/SC(NC(C)=O)=NC1=O)C(=O)N3C(C)(C)C=C2C,"12.6 µM [rising, partial curve]"

row,SMILES,AC50
1,Cc1nn(Cc2ccccc2)c(Cl)c1C(=O)OC1CCOC1=O (configuration not stated),"5.01 µM [falling, partial curve]"
2,COC(=O)c1cc(OC)c(OC)cc1NC(=O)c1cnccn1,"12.6 µM [rising, single point]"
3,CCOC(=O)C1CCN(C(=O)CNS(=O)(=O)c2ccc(Br)s2)CC1,"0.251 µM [falling, partial curve]"
4,CC(=O)ON(C(C)=O)S(=O)(=O)c1ccc(Cl)cc1,"31.6 µM [falling, single point]"
5,CC(=O)c1ccc(NC(=O)C2CC(c3ccc(F)cc3)=NO2)cc1 (configuration not stated),"1.26 µM [falling, partial curve]"
6,COc1cccc(Nc2ncc3nc(CCc4ccccc4)c(=O)n(Cc4cccs4)c3n2)c1,"3.16 µM [rising, partial curve]"
7,CC(CCc1ccco1)NC(=O)Nc1cccc(F)c1 (configuration not stated),"15.8 µM [falling, single point]"
8,CCn1c(=O)n(CCOC)c(=O)c2c3c(sc21)CCCC3,"25.1 µM [rising, single point]"
9,Nc1c(C(=O)NC2CCCCC2)c2nc3ccccc3nc2n1/N=C/c1ccco1,"5.01 µM [rising, partial curve]"
10,O=C(c1ccc2c(c1)[nH]c(=S)n1c3ccccc3nc21)N1CCN(c2ncccn2)CC1,"5.01 µM [rising, partial curve]"
11,O=C(CSC1=NCCS1)Nc1nc2c(s1)CCCC2,"2 µM [falling, single point]"
12,CN1CCN(c2ncc3nc(-c4cccs4)c(=O)n(Cc4ccc(F)cc4)c3n2)CC1,"1.58 µM [rising, full curve]"
13,O=C(NCCn1ccc2ccccc21)c1ccc(S(=O)(=O)N2CCOCC2)cc1,"5.01 µM [rising, partial curve]"
14,CCOC(=O)c1c(NC(=O)CSc2nnc(-c3ccccc3C)n2C)sc(C(C)=O)c1C,"0.631 µM [falling, single point]"
15,CCOc1ccc(NC(=O)CN(C)S(=O)(=O)c2cccs2)cc1,"0.316 µM [falling, full curve]"
16,CN(Cc1ccccc1)c1nc2c(c(=O)[nH]c(=O)n2C)n1Cc1ccccc1Cl,"5.01 µM [rising, partial curve]"
17,COc1ccc(C(=O)CSc2n[nH]c(-c3ccco3)n2)cc1,"3.16 µM [rising, partial curve]"
18,CCS(=O)(=O)N1CCC(C(=O)NCCCN2CCCCCC2)CC1,"3.98 µM [falling, partial curve]"
19,Cc1nn(-c2ccccc2)c2c1/C(=N/O)CC(C)(C)C2,"12.6 µM [rising, single point]"
20,O=c1c(-c2ccc(F)cc2)nc2cnc(Oc3ccccc3)nc2n1C[C@H]1CCCO1,"12.6 µM [rising, partial curve]"
21,CC1CC(C)CN(c2nc3c(c(=O)[nH]c(=O)n3C)n2CCCSc2nc3ccccc3s2)C1 (configuration not stated),"2.51 µM [rising, single point]"
22,CCOC(=O)c1cnc2nc(Cc3ccccc3)[nH]n2c1=O,"0.631 µM [falling, full curve, poor fit]"
23,COc1cc(OC)c(CN2CCN(c3ccc(F)cc3)CC2)cc1Br,"0.398 µM [rising, partial curve]"

row,SMILES,AC50
1,COc1ccc(CC(=O)NCc2ccccc2)cc1S(=O)(=O)N1CCOCC1,"3.98 µM [falling, partial curve]"
2,CCCc1c(C)c2ccc(OCC(C)=O)cc2oc1=O,"12.6 µM [rising, single point]"
3,CC1=C(C(=O)OCCOC(C)C)C(c2cc3c(cc2Br)OCO3)C2=C(CCCC2=O)N1 (configuration not stated),"25.1 µM [falling, single point]"
4,c1ccc(-c2ccc(N3CC4(CCNCC4)C3)cc2)cc1,"25.1 µM [rising, single point]"
5,Cn1nnnc1SCC(=O)Nc1ccccc1C(=O)NCc1ccccc1,"0.00316 µM [falling, full curve, poor fit]"
6,O=c1cnc2ccccc2n1CC1CCCCC1,"3.98 µM [falling, single point]"
7,CCN(CC)c1ccc(NC(=O)c2ccc(NC(=O)C3CCCO3)cc2)c(C)c1 (configuration not stated),"6.31 µM [falling, partial curve, poor fit]"
8,COc1cc(C(=O)OCC(=O)c2cc(C)n(C)c2C)cc(OC)c1OC,"2 µM [rising, full curve]"
9,O=C(NCCN1CCCC1)C1CCN(S(=O)(=O)N2CCC3(CC2)OCCO3)CC1,"3.98 µM [falling, partial curve]"
10,Cc1ccc2cc(COC(=O)c3ccncc3)c(=O)[nH]c2c1,"3.98 µM [falling, partial curve]"
11,COc1ccc(-n2c(=S)[nH]c3cc(C(=O)NCCCN4CCCC4=O)ccc3c2=O)cc1,"0.00794 µM [falling, full curve, poor fit]"
12,CCCn1c(SCC(=O)Nc2cccc(C(=O)OC)c2)nnc1-c1cccnc1,"0.01 µM [falling, full curve, poor fit]"
13,COCCNc1ncnc2ccc(-c3cccnc3)cc12,"3.16 µM [rising, full curve]"
14,CCOc1ccc(-c2nnc3ccc(SCc4ccc(C(=O)OC)o4)nn23)cc1,"2 µM [rising, full curve]"
15,Cc1cc2ncn(C(=O)c3c(-c4ccccc4)noc3C)c2cc1C,"0.0158 µM [falling, partial curve, poor fit]"
16,COc1cc(-c2nc(Cc3c(F)cccc3Cl)no2)cc(OC)c1OC,"1 µM [rising, partial curve]"
17,COC(=O)c1cc(OC)c(OC)cc1N=CC1=C(O)CC(C)(C)CC1=O,"6.31 µM [rising, partial curve]"
18,O=C(Cn1nnc(-c2ccccc2)n1)c1ccccc1,"0.316 µM [falling, full curve]"
19,Nc1nnc(SCc2cccc(C(F)(F)F)c2)s1,"2.51 µM [falling, partial curve, poor fit]"
20,CCN1c2ccccc2-c2nc3ccccc3n2C1c1ccccn1 (configuration not stated),"12.6 µM [rising, partial curve]"
21,CCCN(c1ccc(OCC)cc1)S(=O)(=O)c1ccc2c(c1)CCN2C(=O)CCC(=O)O,"1.26 µM [falling, partial curve]"

# Given with bars between the fields: 20 of the compounds above
row | SMILES | AC50
22 | CCOC(=O)c1cnc2nc(Cc3ccccc3)[nH]n2c1=O | 0.631 µM [falling, full curve, poor fit]
1 | COc1ccc(CC(=O)NCc2ccccc2)cc1S(=O)(=O)N1CCOCC1 | 3.98 µM [falling, partial curve]
2 | CCCc1c(C)c2ccc(OCC(C)=O)cc2oc1=O | 12.6 µM [rising, single point]
3 | CC1=C(C(=O)OCCOC(C)C)C(c2cc3c(cc2Br)OCO3)C2=C(CCCC2=O)N1 (configuration not stated) | 25.1 µM [falling, single point]
4 | c1ccc(-c2ccc(N3CC4(CCNCC4)C3)cc2)cc1 | 25.1 µM [rising, single point]
5 | Cn1nnnc1SCC(=O)Nc1ccccc1C(=O)NCc1ccccc1 | 0.00316 µM [falling, full curve, poor fit]
6 | O=c1cnc2ccccc2n1CC1CCCCC1 | 3.98 µM [falling, single point]
8 | COc1cc(C(=O)OCC(=O)c2cc(C)n(C)c2C)cc(OC)c1OC | 2 µM [rising, full curve]
9 | O=C(NCCN1CCCC1)C1CCN(S(=O)(=O)N2CCC3(CC2)OCCO3)CC1 | 3.98 µM [falling, partial curve]
10 | Cc1ccc2cc(COC(=O)c3ccncc3)c(=O)[nH]c2c1 | 3.98 µM [falling, partial curve]
11 | COc1ccc(-n2c(=S)[nH]c3cc(C(=O)NCCCN4CCCC4=O)ccc3c2=O)cc1 | 0.00794 µM [falling, full curve, poor fit]
12 | CCCn1c(SCC(=O)Nc2cccc(C(=O)OC)c2)nnc1-c1cccnc1 | 0.01 µM [falling, full curve, poor fit]
13 | COCCNc1ncnc2ccc(-c3cccnc3)cc12 | 3.16 µM [rising, full curve]
14 | CCOc1ccc(-c2nnc3ccc(SCc4ccc(C(=O)OC)o4)nn23)cc1 | 2 µM [rising, full curve]
15 | Cc1cc2ncn(C(=O)c3c(-c4ccccc4)noc3C)c2cc1C | 0.0158 µM [falling, partial curve, poor fit]
17 | COC(=O)c1cc(OC)c(OC)cc1N=CC1=C(O)CC(C)(C)CC1=O | 6.31 µM [rising, partial curve]
18 | O=C(Cn1nnc(-c2ccccc2)n1)c1ccccc1 | 0.316 µM [falling, full curve]
19 | Nc1nnc(SCc2cccc(C(F)(F)F)c2)s1 | 2.51 µM [falling, partial curve, poor fit]
20 | CCN1c2ccccc2-c2nc3ccccc3n2C1c1ccccn1 (configuration not stated) | 12.6 µM [rising, partial curve]
21 | CCCN(c1ccc(OCC)cc1)S(=O)(=O)c1ccc2c(c1)CCN2C(=O)CCC(=O)O | 1.26 µM [falling, partial curve]
